According to PMC3586470:
Results are given in words; binding and its absence hold for the method and conditions named. In cells and extracts the contact can be indirect. Binding can be weak; no strength is given.

Assays:
[1] = target: PIST (PDZ-domain protein interacting specifically with TC10) (rat (endogenous in rat kidney)); assay: co-IP; anti-PIST polyclonal antibody, ProFound Mammalian Coimmunoprecipitation kit; total homogenate of kidney cortex from rats fed a control diet (0.6% Pi); Western blot for NaPi-2a
[2] = target: PIST (PDZ-domain protein interacting specifically with TC10) (rat (endogenous in rat kidney)); assay: co-IP; anti-PIST polyclonal antibody, ProFound Mammalian Coimmunoprecipitation kit; non-BBM homogenates of kidneys from rats acutely adapted for 4 hours from low to high (0.1% to 1.2%) or from high to low (1.2% to 0.1%) Pi diet; Western blot for NaPi-2a

B1: NaPi-2a (protein, UniProt Q06496 1-637)
chain: MMSYSERLGGPAVSPLPVRGRHMVHGAAFAYVPSPQVLHRIPGTTTYAISSLSPVALTEHSCPYGEVLECHDPLPAKLAQEEEQKPEPRLSQKLAQVGTKLLKVPLMLGFLYLFVCSLDVLSSAFQLAGGKVAGDIFKDNAILSNPVAGLVVGILVTVLVQSSSTSTSIIVSMVSSGLLEVSSAIPIIMGSNIGTSVTNTIVALMQAGDRTDFRRAFAGATVHDCFNWLSVLVLLPLEAATGYLHHVTGLVVASFNIRGGRDAPDLLKVITEPFTKLIIQLDKSVITSIAVGDESLRNHSLIRIWCQPETKEASTSMSRVEAIGSLANTTMEKCNHIFVDTGLPDLAVGLILLAGSLVVLCTCLILLVKMLNSLLKGQVANVIQKVINTDFPAPFTWVTGYFAMVVGASMTFVVQSSSVFTSAITPLIGLGVISIERAYPLTLGSNIGTTTTAILAALASPREKLSSSFQIALCHFFFNISGILLWYPLPCTRLPIRMAKALGKRTAKYRWFAVLYLLVCFLLLPSLVFGISMAGWQAMVGVGTPFGALLAFVVLVNVLQSRSPGHLPKWLQTWDFLPRWMHSLQPLDGLITRATLCYARPEPRSPQLPPRVFLEELPPATPSPRLALPAHHNATRL
B1 was tested, and the binding [1] was “binds weakly” and the binding [2] was “binds”.
